# Measured values published in patent publication US20250180542A1, “INDIVIDUALIZED PATIENT-DERIVED TUMOR ORGANOIDS” (SHANGHAITECH UNIVERSITY, priority 2022, published 2025).
# At least one compound was matched to its structure with a doubt left.
# What was measured:
# glioblastoma patients = assay: Clinical follow-up of progression-free survival of TMZ-treated glioblastoma patients; type: in vivo, human; conditions: all patients treated with TMZ, follow-up 15 months, FIG. 7
# [1] = system: IPTOs prepared from glioblastoma patients; assay: Drug sensitivity testing of IPTOs by bioluminescence imaging; type: cell-based, human; conditions: 3-6 IPTOs per group
smiles,measurement,setting,value
Cn1nnc2c(C(N)=O)ncn2c1=O [temozolomide],Progress-free survival (PFS) of patients with TMZ-sensitive IPTO versus TMZ-resistant IPTO,glioblastoma patients,signifcantly higher progress-free survival (PFS)
same,"IPTO sensitivity to drug (fold change of bioluminescence signal normalized to control; <1 sensitive, >1 insensitive)",[1],some glioblastoma patients were determined to be sensitive to temozolomide (TMZ) while others were determined to be insensitive
